The target in assay [1] is T1, U1-70k (full-length, yeast two-hybrid fusion) (Arabidopsis thaliana) (UniProt Q42404).
T1 sequence: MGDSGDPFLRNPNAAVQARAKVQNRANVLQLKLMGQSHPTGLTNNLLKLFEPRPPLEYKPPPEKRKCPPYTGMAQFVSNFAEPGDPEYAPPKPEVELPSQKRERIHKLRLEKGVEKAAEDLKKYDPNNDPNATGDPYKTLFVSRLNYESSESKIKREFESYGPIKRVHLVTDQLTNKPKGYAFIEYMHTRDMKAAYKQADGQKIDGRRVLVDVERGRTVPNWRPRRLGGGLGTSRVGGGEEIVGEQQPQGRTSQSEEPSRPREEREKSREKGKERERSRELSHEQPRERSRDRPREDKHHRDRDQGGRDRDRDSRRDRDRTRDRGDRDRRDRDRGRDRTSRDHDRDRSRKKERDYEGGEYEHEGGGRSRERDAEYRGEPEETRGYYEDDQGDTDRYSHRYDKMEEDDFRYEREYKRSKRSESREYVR
Briefly: two-hybrid.

Protein sequences, listed by entry. Tags and fused reporters are not part of them.
UniProt Q9LXW7: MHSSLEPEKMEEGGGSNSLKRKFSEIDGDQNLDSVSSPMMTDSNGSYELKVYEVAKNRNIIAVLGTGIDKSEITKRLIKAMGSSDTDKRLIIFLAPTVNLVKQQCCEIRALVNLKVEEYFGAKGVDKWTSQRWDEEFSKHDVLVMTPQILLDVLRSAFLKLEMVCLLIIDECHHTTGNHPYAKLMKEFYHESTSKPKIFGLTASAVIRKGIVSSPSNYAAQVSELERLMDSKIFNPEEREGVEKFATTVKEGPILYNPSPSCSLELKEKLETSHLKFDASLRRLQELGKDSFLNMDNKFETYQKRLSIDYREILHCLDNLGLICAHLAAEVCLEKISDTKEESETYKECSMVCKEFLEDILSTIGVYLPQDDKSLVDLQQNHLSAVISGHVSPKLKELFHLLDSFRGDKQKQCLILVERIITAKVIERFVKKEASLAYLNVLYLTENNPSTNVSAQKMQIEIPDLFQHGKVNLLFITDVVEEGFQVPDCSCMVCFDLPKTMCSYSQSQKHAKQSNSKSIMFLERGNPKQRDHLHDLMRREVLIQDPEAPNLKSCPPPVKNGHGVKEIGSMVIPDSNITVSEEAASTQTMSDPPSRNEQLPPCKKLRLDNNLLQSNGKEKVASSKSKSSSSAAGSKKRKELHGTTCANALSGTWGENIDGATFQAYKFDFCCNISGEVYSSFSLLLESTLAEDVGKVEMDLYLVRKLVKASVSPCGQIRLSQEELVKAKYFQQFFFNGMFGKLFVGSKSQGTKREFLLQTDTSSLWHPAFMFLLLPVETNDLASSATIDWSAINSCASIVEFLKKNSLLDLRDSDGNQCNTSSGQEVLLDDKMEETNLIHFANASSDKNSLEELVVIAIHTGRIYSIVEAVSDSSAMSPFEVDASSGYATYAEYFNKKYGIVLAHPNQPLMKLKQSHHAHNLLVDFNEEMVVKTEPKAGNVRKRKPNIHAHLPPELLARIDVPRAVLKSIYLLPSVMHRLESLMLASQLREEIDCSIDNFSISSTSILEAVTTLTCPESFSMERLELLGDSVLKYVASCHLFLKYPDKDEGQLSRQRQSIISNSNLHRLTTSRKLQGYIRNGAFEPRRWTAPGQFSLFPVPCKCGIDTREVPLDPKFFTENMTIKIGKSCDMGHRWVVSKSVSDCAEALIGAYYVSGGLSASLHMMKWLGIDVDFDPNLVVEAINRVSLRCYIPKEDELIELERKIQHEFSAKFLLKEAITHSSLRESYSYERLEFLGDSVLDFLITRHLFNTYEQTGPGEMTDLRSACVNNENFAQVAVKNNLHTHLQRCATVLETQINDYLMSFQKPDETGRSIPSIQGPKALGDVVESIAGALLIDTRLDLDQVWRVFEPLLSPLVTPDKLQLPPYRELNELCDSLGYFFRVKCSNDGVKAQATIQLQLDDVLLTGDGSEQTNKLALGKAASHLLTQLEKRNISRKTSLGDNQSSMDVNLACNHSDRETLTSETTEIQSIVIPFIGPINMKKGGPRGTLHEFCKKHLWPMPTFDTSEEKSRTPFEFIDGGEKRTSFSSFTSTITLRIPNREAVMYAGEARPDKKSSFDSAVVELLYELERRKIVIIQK
UniProt P84634: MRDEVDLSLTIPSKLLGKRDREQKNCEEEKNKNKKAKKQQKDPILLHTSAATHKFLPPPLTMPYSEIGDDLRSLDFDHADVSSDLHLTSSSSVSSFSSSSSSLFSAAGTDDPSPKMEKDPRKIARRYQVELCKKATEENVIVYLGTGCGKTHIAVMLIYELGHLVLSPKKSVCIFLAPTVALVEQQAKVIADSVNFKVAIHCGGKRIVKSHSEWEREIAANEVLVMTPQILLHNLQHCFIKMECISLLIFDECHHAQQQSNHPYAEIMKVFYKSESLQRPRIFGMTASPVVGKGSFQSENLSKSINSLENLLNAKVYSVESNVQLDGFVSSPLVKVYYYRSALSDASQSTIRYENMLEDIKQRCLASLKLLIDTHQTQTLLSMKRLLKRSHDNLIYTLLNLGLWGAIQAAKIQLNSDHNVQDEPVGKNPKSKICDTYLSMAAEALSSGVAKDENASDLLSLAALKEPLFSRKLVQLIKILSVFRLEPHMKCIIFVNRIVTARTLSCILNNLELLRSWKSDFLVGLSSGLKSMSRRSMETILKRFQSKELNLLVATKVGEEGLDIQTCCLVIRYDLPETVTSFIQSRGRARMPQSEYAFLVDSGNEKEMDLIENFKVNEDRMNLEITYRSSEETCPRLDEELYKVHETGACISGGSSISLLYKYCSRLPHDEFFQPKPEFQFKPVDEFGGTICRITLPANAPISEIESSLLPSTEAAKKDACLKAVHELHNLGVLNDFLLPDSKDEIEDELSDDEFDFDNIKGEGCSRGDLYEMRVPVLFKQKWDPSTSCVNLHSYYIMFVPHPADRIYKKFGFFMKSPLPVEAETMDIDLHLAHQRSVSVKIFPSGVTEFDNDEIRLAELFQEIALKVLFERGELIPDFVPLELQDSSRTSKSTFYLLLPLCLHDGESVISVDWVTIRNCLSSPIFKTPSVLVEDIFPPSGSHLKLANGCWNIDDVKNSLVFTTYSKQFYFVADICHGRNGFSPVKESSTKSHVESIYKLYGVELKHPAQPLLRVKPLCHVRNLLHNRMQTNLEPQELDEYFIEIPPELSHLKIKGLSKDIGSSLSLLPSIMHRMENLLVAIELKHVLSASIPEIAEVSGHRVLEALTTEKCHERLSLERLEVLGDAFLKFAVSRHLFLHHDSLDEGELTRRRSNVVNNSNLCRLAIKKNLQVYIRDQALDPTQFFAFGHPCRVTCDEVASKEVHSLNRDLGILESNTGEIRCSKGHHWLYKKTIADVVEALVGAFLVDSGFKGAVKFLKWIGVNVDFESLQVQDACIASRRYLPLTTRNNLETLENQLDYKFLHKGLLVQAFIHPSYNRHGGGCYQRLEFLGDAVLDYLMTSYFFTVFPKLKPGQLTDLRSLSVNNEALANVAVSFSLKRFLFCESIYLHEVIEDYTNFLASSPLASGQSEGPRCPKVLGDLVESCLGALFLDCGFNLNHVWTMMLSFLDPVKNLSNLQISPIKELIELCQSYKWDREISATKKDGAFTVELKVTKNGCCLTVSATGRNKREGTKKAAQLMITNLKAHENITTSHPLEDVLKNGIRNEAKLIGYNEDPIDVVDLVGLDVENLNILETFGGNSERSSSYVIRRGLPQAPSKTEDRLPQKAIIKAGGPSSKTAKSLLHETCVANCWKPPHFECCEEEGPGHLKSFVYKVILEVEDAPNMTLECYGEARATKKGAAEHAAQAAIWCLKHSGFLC

For assay [2], the target named is T1, U1-70k (full-length, yeast two-hybrid fusion) (Arabidopsis thaliana). The experiment in a line: two-hybrid. The source holds these as a separate data set.
Assay [3] has as its target T2, U1-70k (235-427aa) (yeast two-hybrid fusion) (Arabidopsis thaliana) (UniProt Q42404).
T2 sequence: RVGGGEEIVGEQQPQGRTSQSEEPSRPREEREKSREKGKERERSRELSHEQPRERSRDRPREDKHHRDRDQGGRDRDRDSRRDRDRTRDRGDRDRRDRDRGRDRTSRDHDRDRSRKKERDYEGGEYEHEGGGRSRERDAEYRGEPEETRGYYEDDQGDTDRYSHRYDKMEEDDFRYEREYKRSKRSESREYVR
Briefly: two-hybrid.

The target in assay [4] is T3, SGS3 (Myc-tagged, immunoprecipitated with anti-Myc) (UniProt Q9LDX1).
T3 sequence: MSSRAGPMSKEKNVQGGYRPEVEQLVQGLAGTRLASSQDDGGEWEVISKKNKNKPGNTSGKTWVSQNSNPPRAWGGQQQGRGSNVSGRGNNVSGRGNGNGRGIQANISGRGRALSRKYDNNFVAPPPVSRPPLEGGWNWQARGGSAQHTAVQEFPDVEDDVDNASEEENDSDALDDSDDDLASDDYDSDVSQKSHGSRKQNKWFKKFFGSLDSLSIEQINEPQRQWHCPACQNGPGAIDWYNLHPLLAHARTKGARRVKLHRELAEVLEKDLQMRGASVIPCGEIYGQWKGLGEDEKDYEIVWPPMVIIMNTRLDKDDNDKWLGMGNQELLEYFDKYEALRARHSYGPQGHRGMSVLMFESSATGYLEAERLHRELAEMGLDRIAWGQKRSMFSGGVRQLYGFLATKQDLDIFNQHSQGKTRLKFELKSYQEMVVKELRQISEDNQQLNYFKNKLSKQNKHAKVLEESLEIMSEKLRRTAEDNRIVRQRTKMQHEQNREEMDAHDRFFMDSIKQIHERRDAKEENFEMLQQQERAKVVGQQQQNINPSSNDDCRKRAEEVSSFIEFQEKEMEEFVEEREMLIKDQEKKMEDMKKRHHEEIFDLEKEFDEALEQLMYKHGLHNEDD
Briefly: co-IP.

Assay [5] addresses T4, cYFP-U1-70k (Arabidopsis thaliana) (UniProt Q42404).
T4 sequence: T1 sequence
The experiment in a line: split reporter.

In assay [6] the target is T4, cYFP-U1-70k (Arabidopsis thaliana). The experiment in a line: split reporter. The source holds these as a separate data set.

Like-named read-outs stand apart in the source and are kept apart here. Results are given in words; binding and its absence hold for the method and conditions named. For part of these data: In cells and extracts the contact can be indirect. Some results given as binding are weak or reduced against the parent protein; the word gives no strength. Sequences can lack the tags named with a protein.

For “DCL3 (yeast two-hybrid fusion) (from UniProt Q9LXW7 1-1580)”, in assay [1], the binding result is reported as “no binding”.
“DCL4 (yeast two-hybrid fusion) (from UniProt P84634 1-1702)”: the binding result in assay [1] is “no binding”.

B1: RDR6 (RNA-dependent RNA polymerase 6, yeast two-hybrid fusion) (protein, UniProt Q9SG02 1-1196)
chain: MGSEGNMKKSVVTQVSIGGFGESTTAKQLTDYLEDEVGIVWRCRLKTSWTPPGSYPNFEIADTSNIPSIDEYKKVEPHAFVHFAVFESAGRAMDAAGQCNLILDGQPLKVSLGPKNPYSLNQRRRTTVPYKLAGITLEIGTLVSRDDFFVSWRAEGVDFLVDPFDNTCKFCFRKSTAFSFKDAVMHAVINCDYKLELLVRDIQTVRQYKTLHGFVLILQLASSPRVWYRTADDDIYDTVPGDLLDDDDPWIRTTDFTQVGAIGRCHSYRVLISPRYENKLRTALDYFRMRRVQEERVRWPPRIRNEPCFGEPVSDHFFCIHHKEGISFEIMFLVNSVLHRGVFNQFQLTERFFDLLRNQPKDVNIASLKHLCTYKRPVFDAYKRLKLVQEWIQKNPKLLGSHEQSEDISEIRRLVITPTRAYCLPPEVELSNRVLRRYKAVAERFLRVTFMDESMQTINSNVLSYFVAPIVKDLTSSSFSQKTYVFKRVKSILTDGFKLCGRKYSFLAFSANQLRDRSAWFFAEDGKTRVSDIKTWMGKFKDKNVAKCAARMGLCFSSTYATVDVMPHEVDTEVPDIERNGYVFSDGIGTITPDLADEVMEKLKLDVHYSPCAYQIRYAGFKGVVARWPSKSDGIRLALRDSMKKFFSKHTILEICSWTRFQPGFLNRQIITLLSVLGVPDEIFWDMQESMLYKLNRILDDTDVAFEVLTASCAEQGNTAAIMLSAGFKPKTEPHLRGMLSSVRIAQLWGLREKSRIFVTSGRWLMGCLDEAGILEHGQCFIQVSKPSIENCFSKHGSRFKETKTDLEVVKGYVAIAKNPCLHPGDVRILEAVDVPQLHHMYDCLIFPQKGDRPHTNEASGSDLDGDLYFVAWDQKLIPPNRKSYPAMHYDAAEEKSLGRAVNHQDIIDFFARNLANEQLGTICNAHVVHADRSEYGAMDEECLLLAELAATAVDFPKTGKIVSMPFHLKPKLYPDFMGKEDYQTYKSNKILGRLYRRVKEVYDEDAEASSEESTDPSAIPYDAVLEIPGFEDLIPEAWGHKCLYDGQLIGLLGQYKVQKEEEIVTGHIWSMPKYTSKKQGELKERLKHSYNSLKKEFRKVFEETIPDHENLSEEEKNILYEKKASAWYHVTYHPEWVKKSLELQDPDESSHAAMLSFAWIAADYLARIKIRSREMGSIDSAKPVDSLAKFLAQRL
On to B1, for which the binding entry in assay [2] was “no binding”.

B2: RDR2 (yeast two-hybrid fusion) (protein, UniProt O82504 1-1133)
chain: MVSETTTNRSTVKISNVPQTIVADELLRFLELHLGEDTVFALEIPTTRDNWKPRDFARVQFTTLEVKSRAQLLSSQSKLLFKTHNLRLSEAYDDIIPRPVDPRKRLDDIVLTVGFPESDEKRFCALEKWDGVRCWILTEKRRVEFWVWESGDCYKIEVRFEDIIETLSCCVNGDASEIDAFLLKLKYGPKVFKRVTVHIATKFKSDRYRFCKEDFDFMWIRTTDFSGSKSIGTSTCFCLEVHNGSTMLDIFSGLPYYREDTLSLTYVDGKTFASAAQIVPLLNAAILGLEFPYEILFQLNALVHAQKISLFAASDMELIKILRGMSLETALVILKKLHQQSSICYDPVFFVKTQMQSVVKKMKHSPASAYKRLTEQNIMSCQRAYVTPSKIYLLGPELETANYVVKNFAEHVSDFMRVTFVEEDWSKLPANALSVNSKEGYFVKPSRTNIYNRVLSILGEGITVGPKRFEFLAFSASQLRGNSVWMFASNEKVKAEDIREWMGCFRKIRSISKCAARMGQLFSASRQTLIVRAQDVEQIPDIEVTTDGADYCFSDGIGKISLAFAKQVAQKCGLSHVPSAFQIRYGGYKGVIAVDRSSFRKLSLRDSMLKFDSNNRMLNVTRWTESMPCFLNREIICLLSTLGIEDAMFEAMQAVHLSMLGNMLEDRDAALNVLQKLSGENSKNLLVKMLLQGYAPSSEPYLSMMLRVHHESQLSELKSRCRILVPKGRILIGCMDEMGILEYGQVYVRVTLTKAELKSRDQSYFRKIDEETSVVIGKVVVTKNPCLHPGDIRVLDAIYEVHFEEKGYLDCIIFPQKGERPHPNECSGGDLDGDQFFVSWDEKIIPSEMDPPMDYAGSRPRLMDHDVTLEEIHKFFVDYMISDTLGVISTAHLVHADRDPEKARSQKCLELANLHSRAVDFAKTGAPAEMPYALKPREFPDFLERFEKPTYISESVFGKLYRAVKSSLAQRKPEAESEDTVAYDVTLEEAGFESFIETAKAHRDMYGEKLTSLMIYYGAANEEEILTGILKTKEMYLARDNRRYGDMKDRITLSVKDLHKEAMGWFEKSCEDEQQKKKLASAWYYVTYNPNHRDEKLTFLSFPWIVGDVLLDIKAENAQRQSVEEKTSGLVSI
As for B2, the binding result in assay [2] was “no binding”.

B3: U1-70k (235-427aa) (yeast two-hybrid fusion) (domain or fragment, UniProt Q42404 235-427)
chain: T2 sequence
Turning to B3, the binding entry in assay [3] is “binds”.

B4: U1-70k (full-length, yeast two-hybrid fusion) (protein, UniProt Q42404 1-427)
chain: T1 sequence
Turning to B4, in assay [2], the binding entry is “binds”.

B5: U1-70k (endogenous) (protein, UniProt Q42404 1-427)
chain: T1 sequence
On to B5, for which the binding result in assay [4] is given as “binds”.

B6: nYFP-SGS3 (protein, UniProt Q9LDX1 1-625)
chain: T3 sequence
As to B6, the binding result in assay [5] and in assay [6] was “binds” throughout.

These data come from doi:10.1101/2025.04.22.650084.
